Measurements reported in PubChem BioAssay AID1259272 (Sanger Institute, 2017)
Assay: 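Kinome-wide siRNA search for genes whose silencing boosts targeted drug effects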 (primary screen). Cells: SW1116 human colorectal cancer cells. Reagents: siRNA pool against human genes. Conditions: anchor drugs BYL719 (1 µM), cetuximab (5 µg/ml) or trametinib (10 nM), or DMSO vehicle; exposure length not given. Detection: 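Cell survival as a fraction of wells given a non-targeting pool, averaged over replicates; robust z-score without drug; synergy score for each of BYL719, cetuximab and trametinib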. Reading the numbers: viability z-score, no drug: higher = more cells remaining; strongly negative means essential gene; viability, no drug: higher = more viable cells; synergy score with BYL719 and synergy score with cetuximab and synergy score with trametinib: higher = stronger synthetic-lethal synergy with the drug. Call rule: 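Called essential if the drug-free knock-down gives a robust viability z-score below -3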. Calls: active = essential (knock-down alone); inactive = no change.
In all, the deposit lists 794 reagents; below is a random part of them. In the full data, 7 (0.88%) got an active call. 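Essential calls reflect knock-down without drug only, not synergy with drugs; drug exposure length not given.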 A number with no mark means an inactive call. Viability is capped at 1. Reagent sequences are not shown. Not stated in the record: the amount of reagent, the time to read-out.

Gene	viability z-score, no drug	viability, no drug (fraction of control)	synergy score with BYL719	synergy score with cetuximab	synergy score with trametinib
FGFR4	0.842	1	-0.0703	0.0786	-0.106
TRIM27	0.842	1	0.024	-0.00925	-0.0215
PSTK	0.842	1	-0.0736	-0.000115	0.0233
CTNNB1	0.308	0.943	-0.131	0.0389	0.00892
CDKN1C	0.842	1	-0.0583	0.054	0.126
TGFBR1	-0.531	0.854	-0.209	-0.0717	-0.0173
WIPF1	-0.196	0.889	-0.00863	0.0459	0.0829
PAPSS1	0.842	1	-0.0147	-0.0479	0.122
CTCF	0.842	1	-0.0444	-0.0757	-0.163
EIF2AK3	0.726	0.988	-0.028	0.0583	-0.137
TESK1	0.842	1	-0.063	-0.0757	0.112
MAST2	-0.365	0.871	-0.168	-0.0814	0.104
STK4	0.842	1	-0.0493	0.172	0.0404

Sorted by “synergy score with cetuximab” (lowest first): some entries from above.
Gene	viability z-score, no drug	viability, no drug (fraction of control)	synergy score with BYL719	synergy score with cetuximab	synergy score with trametinib
MAST2	-0.365	0.871	-0.168	-0.0814	0.104
TESK1	0.842	1	-0.063	-0.0757	0.112
STK4	0.842	1	-0.0493	0.172	0.0404

More entries:
Gene	viability z-score, no drug	viability, no drug (fraction of control)	synergy score with BYL719	synergy score with cetuximab	synergy score with trametinib
SBK1	0.842	1	-0.0788	-0.0394	0.0353
TTBK2	0.517	0.965	-0.106	0.0154	0.256
NEK8	-2.51	0.643	-0.0791	-0.086	0.0134
FLT3	0.607	0.975	-0.0278	0.0938	-0.0523
MINK1	0.634	0.978	0.0792	0.126	0.15
PBK	0.0849	0.919	-0.0964	-0.0886	0.0962
SRP72	0.00344	0.911	-0.084	-0.158	-0.271
